No constants are given. Whether binding was seen depends on the method and setting. Some entries that bind do so weakly or less than the wild type.
Target: T1, wild-type human CCK-B/gastrin receptor (human, UniProt P32239 1-447)
T1 sequence: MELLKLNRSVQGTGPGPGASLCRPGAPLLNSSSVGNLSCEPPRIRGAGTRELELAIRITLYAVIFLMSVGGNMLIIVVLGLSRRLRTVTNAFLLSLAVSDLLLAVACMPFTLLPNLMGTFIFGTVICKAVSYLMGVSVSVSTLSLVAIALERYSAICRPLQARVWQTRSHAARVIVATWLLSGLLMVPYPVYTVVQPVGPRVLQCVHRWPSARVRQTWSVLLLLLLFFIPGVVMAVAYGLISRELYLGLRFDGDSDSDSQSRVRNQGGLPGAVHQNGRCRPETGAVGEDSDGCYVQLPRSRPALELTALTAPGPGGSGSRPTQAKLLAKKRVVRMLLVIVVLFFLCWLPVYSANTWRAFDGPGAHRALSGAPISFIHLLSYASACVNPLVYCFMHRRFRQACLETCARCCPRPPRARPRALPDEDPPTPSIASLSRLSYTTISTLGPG
Assay: ^125I-CCK-8 competition binding on stably transfected CHO cells

Amino acid sequences for entries named in this document (tags omitted). A change or cut given only in a name is not applied to a line headed by its entry.
UniProt P01350: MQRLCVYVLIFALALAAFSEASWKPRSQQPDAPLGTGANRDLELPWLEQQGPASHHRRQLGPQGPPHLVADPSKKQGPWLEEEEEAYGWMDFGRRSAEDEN

binding: binds
Binder: QGPWLEEEEEAYGWMDF (peptide, UniProt P01350 76-92, looked up) [Gastrin I (unsulphated gastrin-17)]
